# Data as given in the supplement of paper PMC8728848.
# The other results are listed elsewhere or left out.
# Tests used:
# Experiment in all cases: glycan array binding signal (z-score within array); higher = stronger binding
# Settings in all cases: glycan notation: IUPAC condensed, linker removed
# [1] = target: Gal(b1-4)GalNAc(b1-3)[Fuc(a1-2)]Gal(b1-4)GlcNAc
# Procedure, shortened: (§1)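 Glycan array data came from 3228 arrays in the Consortium for Functional Glycomics database, and only arrays with an available protein sequence were kept. Glycan names were put into IUPAC-condensed notation, and columns mapping to the same glycan were averaged. The binding signal is a within-array Z-score, averaged across arrays of one protein sequence run at different concentrations or buffers and across linkers. A negative Z-score can be read as non-binding.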
# Gal(b1-4)Glc = target: Gal(b1-4)Glc
# Procedure, shortened: as §1
# Gal(b1-4)Glc6S = target: Gal(b1-4)Glc6S
# Procedure, shortened: as §1
# Gal(b1-4)GlcNAc = target: Gal(b1-4)GlcNAc
# Procedure, shortened: as §1
# [2] = target: Gal(b1-4)GlcNAc(a1-6)Gal(b1-4)GlcNAc
# Procedure, shortened: as §1
# [3] = target: Gal(b1-4)GlcNAc(b1-2)Man(a1-3)Man(b1-4)GlcNAc(b1-4)GlcNAc
# Procedure, shortened: as §1
# [4] = target: Gal(b1-4)GlcNAc(b1-2)Man(a1-3)[Gal(b1-4)GlcNAc(b1-2)Man(a1-6)]Man(b1-4)GlcNAc(b1-4)GlcNAc
# Procedure, shortened: as §1
# [5] = target: Gal(b1-4)GlcNAc(b1-2)Man(a1-3)[Gal(b1-4)GlcNAc(b1-2)Man(a1-6)]Man(b1-4)GlcNAc(b1-4)[Fuc(a1-6)]GlcNAc
# Procedure, shortened: as §1
# [6] = target: Gal(b1-4)GlcNAc(b1-2)Man(a1-3)[GlcNAc(b1-2)Man(a1-6)]Man(b1-4)GlcNAc(b1-4)GlcNAc
# Procedure, shortened: as §1
# [7] = target: Gal(b1-4)GlcNAc(b1-2)Man(a1-3)[Man(a1-6)]Man(b1-4)GlcNAc(b1-4)GlcNAc
# Procedure, shortened: as §1
# [8] = target: Gal(b1-4)GlcNAc(b1-2)Man(a1-6)Man(b1-4)GlcNAc(b1-4)GlcNAc
# Procedure, shortened: as §1
# [9] = target: Gal(b1-4)GlcNAc(b1-2)Man(a1-6)[GlcNAc(b1-2)Man(a1-3)]Man(b1-4)GlcNAc(b1-4)GlcNAc
# Procedure, shortened: as §1
# [10] = target: Gal(b1-4)GlcNAc(b1-2)Man(a1-6)[Man(a1-3)]Man(b1-4)GlcNAc(b1-4)GlcNAc
# Procedure, shortened: as §1
# [11] = target: Gal(b1-4)GlcNAc(b1-2)[Gal(b1-4)GlcNAc(b1-4)]Man(a1-3)[Gal(b1-4)GlcNAc(b1-2)Man(a1-6)]Man(b1-4)GlcNAc(b1-4)GlcNAc
# Procedure, shortened: as §1
# [12] = target: Gal(b1-4)GlcNAc(b1-2)[Gal(b1-4)GlcNAc(b1-4)]Man(a1-3)[Gal(b1-4)GlcNAc(b1-2)[Gal(b1-4)GlcNAc(b1-6)]Man(a1-6)]Man(b1-4)GlcNAc(b1-4)GlcNAc
# Procedure, shortened: as §1
# [13] = target: Gal(b1-4)GlcNAc(b1-3)Gal(b1-3)GlcNAc
# Procedure, shortened: as §1
# [14] = target: Gal(b1-4)GlcNAc(b1-3)Gal(b1-4)Glc
# Procedure, shortened: as §1
# [15] = target: Gal(b1-4)GlcNAc(b1-3)Gal(b1-4)GlcNAc
# Procedure, shortened: as §1
# [16] = target: Gal(b1-4)GlcNAc(b1-3)Gal(b1-4)GlcNAc(b1-3)Gal(b1-4)GlcNAc
# Procedure, shortened: as §1
# [17] = target: Gal(b1-4)GlcNAc(b1-3)Gal(b1-4)[Fuc(a1-3)]GlcNAc(b1-3)Gal(b1-4)[Fuc(a1-3)]GlcNAc
# Procedure, shortened: as §1
# [18] = target: Gal(b1-4)GlcNAc(b1-3)GalNAc
# Procedure, shortened: as §1
# [19] = target: Gal(b1-4)GlcNAc(b1-3)[Gal(b1-4)GlcNAc(b1-6)]Gal(b1-4)GlcNAc
# Procedure, shortened: as §1
# [20] = target: Gal(b1-4)GlcNAc(b1-3)[Gal(b1-4)GlcNAc(b1-6)]GalNAc
# Procedure, shortened: as §1
# [21] = target: Gal(b1-4)GlcNAc(b1-3)[GlcNAc(b1-6)]Gal(b1-4)GlcNAc
# Procedure, shortened: as §1
# [22] = target: Gal(b1-4)GlcNAc(b1-6)Gal(b1-4)GlcNAc
# Procedure, shortened: as §1
# [23] = target: Gal(b1-4)GlcNAc(b1-6)Gal(b1-4)GlcNAc(b1-6)GalNAc
# Procedure, shortened: as §1
# [24] = target: Gal(b1-4)GlcNAc(b1-6)GalNAc
# Procedure, shortened: as §1
# [25] = target: Gal(b1-4)GlcNAc(b1-6)[Gal(b1-3)]GalNAc
# Procedure, shortened: as §1
# Gal3S(b1-3)GalNAc = target: Gal3S(b1-3)GalNAc
# Procedure, shortened: as §1
# Gal3S(b1-3)GlcNAc = target: Gal3S(b1-3)GlcNAc
# Procedure, shortened: as §1
# [26] = target: Gal3S(b1-3)[Fuc(a1-4)]GlcNAc
# Procedure, shortened: as §1
# Gal3S(b1-4)Glc = target: Gal3S(b1-4)Glc
# Procedure, shortened: as §1
# Gal3S(b1-4)Glc6S = target: Gal3S(b1-4)Glc6S
# Procedure, shortened: as §1
# Gal3S(b1-4)GlcNAc = target: Gal3S(b1-4)GlcNAc
# Procedure, shortened: as §1
# Gal3S(b1-4)GlcNAc6S = target: Gal3S(b1-4)GlcNAc6S
# Procedure, shortened: as §1
# [27] = target: Gal3S(b1-4)[Fuc(a1-3)]Glc
# Procedure, shortened: as §1
# [28] = target: Gal3S(b1-4)[Fuc(a1-3)]Glc6S
# Procedure, shortened: as §1
# Gal3S4S(b1-4)GlcNAc = target: Gal3S4S(b1-4)GlcNAc
# Procedure, shortened: as §1
# Gal3S6S(b1-4)GlcNAc = target: Gal3S6S(b1-4)GlcNAc
# Procedure, shortened: as §1
# Gal3S6S(b1-4)GlcNAc6S = target: Gal3S6S(b1-4)GlcNAc6S
# Procedure, shortened: as §1
# Gal4S(b1-4)GlcNAc = target: Gal4S(b1-4)GlcNAc
# Procedure, shortened: as §1
# Gal4S6S(b1-4)GlcNAc = target: Gal4S6S(b1-4)GlcNAc
# Procedure, shortened: as §1
# Gal6S(b1-4)Glc = target: Gal6S(b1-4)Glc
# Procedure, shortened: as §1
# Gal6S(b1-4)Glc6S = target: Gal6S(b1-4)Glc6S
# Procedure, shortened: as §1
# Gal6S(b1-4)GlcNAc = target: Gal6S(b1-4)GlcNAc
# Procedure, shortened: as §1
binder,measurement,setting,value
"SBD (Rhizopus oryzae), P07683 (protein) ASIPSSASVQLDSYNYDGSTFSGKIYVKNIAYSKKVTVVYADGSDNWNNNGNIIAASFSGPISGSNYEYWTFSASVKGIKEFYIKYEVSGKTYYDNNNSANYQVS",glycan array binding signal (z-score),[1],0.033
same,glycan array binding signal (z-score),Gal(b1-4)Glc,-0.248
same,glycan array binding signal (z-score),Gal(b1-4)Glc6S,0.109
same,glycan array binding signal (z-score),Gal(b1-4)GlcNAc,-0.407
same,glycan array binding signal (z-score),[2],-0.335
same,glycan array binding signal (z-score),[3],-0.573
same,glycan array binding signal (z-score),[4],-0.052
same,glycan array binding signal (z-score),[5],0.072
same,glycan array binding signal (z-score),[6],-0.194
same,glycan array binding signal (z-score),[7],0.03
same,glycan array binding signal (z-score),[8],-0.238
same,glycan array binding signal (z-score),[9],-0.081
same,glycan array binding signal (z-score),[10],-0.373
same,glycan array binding signal (z-score),[11],0.052
same,glycan array binding signal (z-score),[12],0.825
same,glycan array binding signal (z-score),[13],-0.395
same,glycan array binding signal (z-score),[14],1.63
same,glycan array binding signal (z-score),[15],0.159
same,glycan array binding signal (z-score),[16],-0.51
same,glycan array binding signal (z-score),[17],0.196
same,glycan array binding signal (z-score),[18],0.13
same,glycan array binding signal (z-score),[19],-0.472
same,glycan array binding signal (z-score),[20],0.778
same,glycan array binding signal (z-score),[21],-0.424
same,glycan array binding signal (z-score),[22],0.47
same,glycan array binding signal (z-score),[23],-0.088
same,glycan array binding signal (z-score),[24],-0.13
same,glycan array binding signal (z-score),[25],-0.329
same,glycan array binding signal (z-score),Gal3S(b1-3)GalNAc,0.222
same,glycan array binding signal (z-score),Gal3S(b1-3)GlcNAc,-0.254
same,glycan array binding signal (z-score),[26],-0.538
same,glycan array binding signal (z-score),Gal3S(b1-4)Glc,0.207
same,glycan array binding signal (z-score),Gal3S(b1-4)Glc6S,-0.023
same,glycan array binding signal (z-score),Gal3S(b1-4)GlcNAc,-0.136
same,glycan array binding signal (z-score),Gal3S(b1-4)GlcNAc6S,0.038
same,glycan array binding signal (z-score),[27],0.05
same,glycan array binding signal (z-score),[28],0.193
same,glycan array binding signal (z-score),Gal3S4S(b1-4)GlcNAc,-0.251
same,glycan array binding signal (z-score),Gal3S6S(b1-4)GlcNAc,0.752
same,glycan array binding signal (z-score),Gal3S6S(b1-4)GlcNAc6S,0.19
same,glycan array binding signal (z-score),Gal4S(b1-4)GlcNAc,-0.505
same,glycan array binding signal (z-score),Gal4S6S(b1-4)GlcNAc,-0.199
same,glycan array binding signal (z-score),Gal6S(b1-4)Glc,-0.476
same,glycan array binding signal (z-score),Gal6S(b1-4)Glc6S,-0.03
same,glycan array binding signal (z-score),Gal6S(b1-4)GlcNAc,-0.266

# Taken from the listing (9 entries):
binder,measurement,setting,value
"SBD (Rhizopus oryzae), P07683 (protein) ASIPSSASVQLDSYNYDGSTFSGKIYVKNIAYSKKVTVVYADGSDNWNNNGNIIAASFSGPISGSNYEYWTFSASVKGIKEFYIKYEVSGKTYYDNNNSANYQVS",glycan array binding signal (z-score),[15],0.159
same,glycan array binding signal (z-score),[16],-0.51
same,glycan array binding signal (z-score),[17],0.196
same,glycan array binding signal (z-score),[18],0.13
same,glycan array binding signal (z-score),[19],-0.472
same,glycan array binding signal (z-score),[20],0.778
same,glycan array binding signal (z-score),[21],-0.424
same,glycan array binding signal (z-score),[22],0.47
same,glycan array binding signal (z-score),[23],-0.088
